# According to paper PMC4273223 (Beilstein Journal of Organic Chemistry, 2014):
# Experiment: general procedure: solution-phase peptide synthesis; EDC/HOAt/TMP (2,4,6-collidine); HATU/HOAt/DIEA/2,4,6-collidine
# Settings: coupling step
row,Substance,step yield [%]
1,Boc-(4-Pe)Pro-[MeZ-a-Thr]-(βMe)Phe-(S)dFmcpA-(βMe)Phe-Ile-ODCPM,90
2,Boc-(4-Pe)Pro-[MeZ-a-Thr]-(βMe)Phe-(S)tFmcpA-(βMe)Phe-Ile-ODCPM,92
3,Fmoc-(βMe)Phe-(R)dFmcpA-(βMe)Phe-Ile-ODCPM,81
4,Fmoc-(βMe)Phe-(R)tFmcpA-(βMe)Phe-Ile-ODCPM,93
